# From the supplement of paper PMC7666118
# Protein sequences, listed by entry. Tags and fused reporters are not part of them. Lines headed by an entry give the natural chain unless they say otherwise; changes in a name come on top.
# UniProt Q9NVR0: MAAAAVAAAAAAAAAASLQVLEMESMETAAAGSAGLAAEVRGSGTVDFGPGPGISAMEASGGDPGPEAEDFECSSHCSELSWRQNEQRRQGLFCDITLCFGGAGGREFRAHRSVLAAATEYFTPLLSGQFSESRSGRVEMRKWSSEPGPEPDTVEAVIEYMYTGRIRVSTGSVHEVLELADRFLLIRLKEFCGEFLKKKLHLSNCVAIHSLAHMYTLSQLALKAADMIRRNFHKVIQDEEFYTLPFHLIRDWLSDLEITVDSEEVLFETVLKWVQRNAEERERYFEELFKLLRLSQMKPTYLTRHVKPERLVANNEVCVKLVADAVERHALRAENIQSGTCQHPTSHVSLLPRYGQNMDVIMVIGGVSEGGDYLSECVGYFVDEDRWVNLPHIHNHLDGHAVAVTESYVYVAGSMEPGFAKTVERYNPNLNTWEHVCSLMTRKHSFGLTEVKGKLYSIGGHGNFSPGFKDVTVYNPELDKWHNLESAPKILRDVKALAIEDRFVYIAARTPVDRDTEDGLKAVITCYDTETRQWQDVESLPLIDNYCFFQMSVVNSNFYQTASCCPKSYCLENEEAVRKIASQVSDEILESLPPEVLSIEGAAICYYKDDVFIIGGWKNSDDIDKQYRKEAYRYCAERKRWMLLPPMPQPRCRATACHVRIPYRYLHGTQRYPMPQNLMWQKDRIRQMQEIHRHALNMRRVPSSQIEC
# UniProt Q8TCA0: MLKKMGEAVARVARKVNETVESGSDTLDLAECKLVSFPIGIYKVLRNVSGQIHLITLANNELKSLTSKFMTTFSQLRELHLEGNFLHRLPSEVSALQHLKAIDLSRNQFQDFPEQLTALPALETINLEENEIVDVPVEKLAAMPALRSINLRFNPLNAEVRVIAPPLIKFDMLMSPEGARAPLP
# UniProt Q96EK9: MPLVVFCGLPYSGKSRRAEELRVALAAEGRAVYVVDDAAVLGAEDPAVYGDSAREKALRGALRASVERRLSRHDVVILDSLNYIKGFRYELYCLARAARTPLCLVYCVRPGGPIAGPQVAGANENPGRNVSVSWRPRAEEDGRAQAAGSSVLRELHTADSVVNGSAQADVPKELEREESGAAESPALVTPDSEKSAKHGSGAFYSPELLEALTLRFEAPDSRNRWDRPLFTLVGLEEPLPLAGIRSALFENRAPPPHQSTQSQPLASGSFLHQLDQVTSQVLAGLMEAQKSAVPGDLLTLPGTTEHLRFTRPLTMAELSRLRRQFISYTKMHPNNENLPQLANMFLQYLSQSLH
# UniProt P50748: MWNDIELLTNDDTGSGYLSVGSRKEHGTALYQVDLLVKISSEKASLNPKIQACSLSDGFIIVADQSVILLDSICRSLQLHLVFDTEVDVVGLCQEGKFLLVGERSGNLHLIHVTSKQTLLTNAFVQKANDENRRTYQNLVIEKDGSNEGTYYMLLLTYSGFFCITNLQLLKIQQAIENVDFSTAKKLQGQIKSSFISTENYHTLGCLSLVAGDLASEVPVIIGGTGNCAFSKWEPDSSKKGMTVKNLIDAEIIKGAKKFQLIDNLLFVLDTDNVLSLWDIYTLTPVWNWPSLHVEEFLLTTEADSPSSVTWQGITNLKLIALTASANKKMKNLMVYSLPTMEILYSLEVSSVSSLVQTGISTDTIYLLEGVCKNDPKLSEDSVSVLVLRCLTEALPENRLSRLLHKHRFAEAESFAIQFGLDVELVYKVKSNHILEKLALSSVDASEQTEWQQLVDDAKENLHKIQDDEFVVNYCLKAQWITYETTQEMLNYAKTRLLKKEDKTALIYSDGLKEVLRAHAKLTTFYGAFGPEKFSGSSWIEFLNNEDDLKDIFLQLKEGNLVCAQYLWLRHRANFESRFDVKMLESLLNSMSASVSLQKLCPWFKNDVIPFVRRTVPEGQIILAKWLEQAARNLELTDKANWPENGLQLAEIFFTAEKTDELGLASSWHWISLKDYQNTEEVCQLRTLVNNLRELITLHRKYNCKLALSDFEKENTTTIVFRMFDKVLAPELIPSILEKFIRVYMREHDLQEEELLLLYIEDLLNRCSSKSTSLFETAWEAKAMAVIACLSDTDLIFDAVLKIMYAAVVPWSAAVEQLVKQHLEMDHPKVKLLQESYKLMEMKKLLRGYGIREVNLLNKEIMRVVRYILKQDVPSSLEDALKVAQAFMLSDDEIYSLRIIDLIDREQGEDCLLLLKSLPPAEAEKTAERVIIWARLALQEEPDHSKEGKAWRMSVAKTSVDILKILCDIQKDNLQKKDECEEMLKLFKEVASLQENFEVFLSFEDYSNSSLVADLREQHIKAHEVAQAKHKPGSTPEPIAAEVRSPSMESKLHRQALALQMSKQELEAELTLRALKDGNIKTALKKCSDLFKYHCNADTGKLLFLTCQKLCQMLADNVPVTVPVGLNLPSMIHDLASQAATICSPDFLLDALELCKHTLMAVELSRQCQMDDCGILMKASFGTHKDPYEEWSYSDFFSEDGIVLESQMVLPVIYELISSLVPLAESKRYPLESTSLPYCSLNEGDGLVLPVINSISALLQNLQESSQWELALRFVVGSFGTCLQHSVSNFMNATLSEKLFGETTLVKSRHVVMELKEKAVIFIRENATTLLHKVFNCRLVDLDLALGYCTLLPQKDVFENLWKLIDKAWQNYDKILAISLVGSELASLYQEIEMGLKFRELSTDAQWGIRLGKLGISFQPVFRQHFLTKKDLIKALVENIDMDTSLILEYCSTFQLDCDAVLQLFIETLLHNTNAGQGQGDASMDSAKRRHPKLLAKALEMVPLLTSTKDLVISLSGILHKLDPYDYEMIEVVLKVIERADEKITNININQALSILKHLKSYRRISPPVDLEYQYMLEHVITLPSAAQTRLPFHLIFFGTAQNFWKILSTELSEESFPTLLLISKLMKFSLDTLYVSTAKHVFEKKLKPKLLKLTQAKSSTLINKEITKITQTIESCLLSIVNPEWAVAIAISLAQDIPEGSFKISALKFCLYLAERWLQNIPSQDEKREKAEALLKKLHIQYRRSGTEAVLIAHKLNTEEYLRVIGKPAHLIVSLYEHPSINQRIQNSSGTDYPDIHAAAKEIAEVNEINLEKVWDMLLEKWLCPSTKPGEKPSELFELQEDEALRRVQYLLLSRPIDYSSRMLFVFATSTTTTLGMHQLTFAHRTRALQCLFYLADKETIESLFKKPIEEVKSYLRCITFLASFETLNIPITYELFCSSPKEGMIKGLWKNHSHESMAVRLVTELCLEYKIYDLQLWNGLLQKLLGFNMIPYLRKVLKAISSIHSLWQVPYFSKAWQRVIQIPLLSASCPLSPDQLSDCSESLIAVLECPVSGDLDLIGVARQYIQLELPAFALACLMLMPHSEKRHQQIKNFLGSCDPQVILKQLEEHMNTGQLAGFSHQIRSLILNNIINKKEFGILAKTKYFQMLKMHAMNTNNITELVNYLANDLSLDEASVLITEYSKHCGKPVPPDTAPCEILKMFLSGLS
# UniProt P49917: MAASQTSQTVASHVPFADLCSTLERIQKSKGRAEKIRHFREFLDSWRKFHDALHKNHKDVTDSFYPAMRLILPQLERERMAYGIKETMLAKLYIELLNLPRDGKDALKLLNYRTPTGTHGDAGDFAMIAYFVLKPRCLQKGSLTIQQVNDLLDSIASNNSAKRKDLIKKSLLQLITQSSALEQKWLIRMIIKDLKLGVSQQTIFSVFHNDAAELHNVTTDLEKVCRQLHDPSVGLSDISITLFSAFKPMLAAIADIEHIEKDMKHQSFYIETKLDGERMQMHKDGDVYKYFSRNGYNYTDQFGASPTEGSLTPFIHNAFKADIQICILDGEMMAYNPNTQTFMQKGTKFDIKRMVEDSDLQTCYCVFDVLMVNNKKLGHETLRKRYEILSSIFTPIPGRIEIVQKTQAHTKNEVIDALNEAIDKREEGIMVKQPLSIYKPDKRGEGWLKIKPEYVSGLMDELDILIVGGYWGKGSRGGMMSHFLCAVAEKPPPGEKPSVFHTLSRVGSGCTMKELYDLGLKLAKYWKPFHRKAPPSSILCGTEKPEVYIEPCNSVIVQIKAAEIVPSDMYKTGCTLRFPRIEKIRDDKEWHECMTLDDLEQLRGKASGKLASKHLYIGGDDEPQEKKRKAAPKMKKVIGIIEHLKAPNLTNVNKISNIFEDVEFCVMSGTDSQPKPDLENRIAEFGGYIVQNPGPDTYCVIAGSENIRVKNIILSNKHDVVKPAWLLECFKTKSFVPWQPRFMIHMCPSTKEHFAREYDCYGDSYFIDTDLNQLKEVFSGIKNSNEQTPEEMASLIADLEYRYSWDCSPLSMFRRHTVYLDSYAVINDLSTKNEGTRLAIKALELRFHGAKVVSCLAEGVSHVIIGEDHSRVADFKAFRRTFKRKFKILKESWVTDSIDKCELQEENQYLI
# UniProt Q15031: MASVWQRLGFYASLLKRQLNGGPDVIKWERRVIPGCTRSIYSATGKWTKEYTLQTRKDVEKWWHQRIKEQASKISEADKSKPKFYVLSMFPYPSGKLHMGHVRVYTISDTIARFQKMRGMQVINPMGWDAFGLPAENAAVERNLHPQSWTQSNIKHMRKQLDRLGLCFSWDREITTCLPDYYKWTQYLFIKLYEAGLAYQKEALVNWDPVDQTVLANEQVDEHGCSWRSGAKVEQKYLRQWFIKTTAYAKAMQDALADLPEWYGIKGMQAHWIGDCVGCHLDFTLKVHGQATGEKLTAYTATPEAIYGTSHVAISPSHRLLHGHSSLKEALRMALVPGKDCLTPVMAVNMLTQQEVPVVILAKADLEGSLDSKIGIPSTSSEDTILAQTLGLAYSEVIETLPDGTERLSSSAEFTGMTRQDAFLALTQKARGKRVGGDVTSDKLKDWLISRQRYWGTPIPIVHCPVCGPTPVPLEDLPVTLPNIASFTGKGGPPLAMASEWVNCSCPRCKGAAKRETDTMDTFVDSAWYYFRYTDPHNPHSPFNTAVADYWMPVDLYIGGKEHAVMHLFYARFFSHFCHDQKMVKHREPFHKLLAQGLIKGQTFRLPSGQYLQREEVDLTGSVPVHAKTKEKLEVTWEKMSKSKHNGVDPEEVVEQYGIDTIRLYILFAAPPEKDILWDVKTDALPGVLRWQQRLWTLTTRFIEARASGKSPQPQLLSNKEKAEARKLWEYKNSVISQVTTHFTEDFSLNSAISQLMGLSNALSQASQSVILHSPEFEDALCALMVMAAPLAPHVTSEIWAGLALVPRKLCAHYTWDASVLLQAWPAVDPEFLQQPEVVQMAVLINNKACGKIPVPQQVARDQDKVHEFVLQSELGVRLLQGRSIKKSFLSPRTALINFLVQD
# UniProt Q96II8: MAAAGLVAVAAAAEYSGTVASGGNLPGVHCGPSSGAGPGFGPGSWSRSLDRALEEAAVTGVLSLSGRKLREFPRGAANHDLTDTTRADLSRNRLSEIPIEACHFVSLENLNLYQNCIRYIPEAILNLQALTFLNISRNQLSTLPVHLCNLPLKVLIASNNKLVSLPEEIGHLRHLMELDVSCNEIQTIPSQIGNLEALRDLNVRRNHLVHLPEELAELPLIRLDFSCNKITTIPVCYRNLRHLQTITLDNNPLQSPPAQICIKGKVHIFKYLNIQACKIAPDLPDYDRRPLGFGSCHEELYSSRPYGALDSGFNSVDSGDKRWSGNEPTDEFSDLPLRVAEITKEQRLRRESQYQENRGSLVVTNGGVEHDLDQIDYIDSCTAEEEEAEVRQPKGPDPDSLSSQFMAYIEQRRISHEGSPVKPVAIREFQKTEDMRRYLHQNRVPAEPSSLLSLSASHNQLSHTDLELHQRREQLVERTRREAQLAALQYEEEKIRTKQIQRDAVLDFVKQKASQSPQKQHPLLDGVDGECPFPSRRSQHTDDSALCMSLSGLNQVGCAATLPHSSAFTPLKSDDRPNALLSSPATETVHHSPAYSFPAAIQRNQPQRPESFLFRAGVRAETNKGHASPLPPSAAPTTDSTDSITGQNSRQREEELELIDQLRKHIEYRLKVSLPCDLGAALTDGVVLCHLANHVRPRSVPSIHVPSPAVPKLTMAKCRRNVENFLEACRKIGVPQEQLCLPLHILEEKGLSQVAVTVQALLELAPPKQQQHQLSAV
# UniProt Q9HD34: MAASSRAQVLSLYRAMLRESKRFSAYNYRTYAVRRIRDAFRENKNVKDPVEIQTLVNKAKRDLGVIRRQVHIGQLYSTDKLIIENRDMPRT
# This is one part of the list.
# Compound: COc1ccc(Cn2ccc3ccc(C(=O)NO)cc32)cc1
# Assay: dose-dependent thermal stabilisation call (2D-TPP, DLPTP, 10% FDR) (binary (1 = stabilised)); higher = stabilised by the compound
# Conditions: system: HL-60 intact cells; concentration range 0.04-10 µM
row,Target,dose-dependent thermal stabilisation call
1,KIAA1797 (UniProt Q5VW36),inactive: 0
2,LOC26010,inactive: 0
3,KLHL11 (UniProt Q9NVR0),inactive: 0
4,LRRC20 (UniProt Q8TCA0),inactive: 0
5,KTI12 (UniProt Q96EK9),inactive: 0
6,KNTC1 (UniProt P50748),inactive: 0
7,LIN9 (UniProt Q5TKA1),inactive: 0
8,LIG4 (UniProt P49917),inactive: 0
9,LARS2 (UniProt Q15031),inactive: 0
10,LRCH3 (UniProt Q96II8),inactive: 0
11,LYRM4 (UniProt Q9HD34),inactive: 0
